Experimental data: PubChem BioAssay AID1259254 (NCATS, 2017)
The deposit covers about 59,000 reagents; below is a part drawn at random. About 1,550 of them (2.6%) count as active. 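G2 share is only a proxy for re-replication; each gene was hit by three separate siRNAs, and active genes were retested.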 The numbers tell different reagents against one gene apart. Further read-outs or replicates are left out here. No sequences are given here. The record does not give: the amount of reagent.

Purpose: 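Gene knock-downs that lead to re-replication, shown by excess G2 DNA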 (primary screen)
Cell system: human HCT116 colorectal cancer cells
Reagents: single siRNA against human genes
Timing: 3 days
Measured: 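Nuclei stained with Hoechst and imaged; cell-cycle phase assigned by DNA content; G2 share scaled per plate, non-targeting siRNA 0%, GMNN siRNA 100%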
Reading the numbers: G2 robust z-score: higher = more G2 cells, more excess DNA replication
Active means: 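An siRNA counts as active if its G2 robust z-score lies at least 5 MADs above the screen median; here such calls match roughly 38% of GMNN control or more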

| gene | reagent | G2 robust z-score | outcome |
| --- | --- | --- | --- |
| PADI4 | 1 | -0.969 | inactive |
| PADI4 | 2 | 0.752 | inactive |
| PADI4 | 3 | -0.754 | inactive |
| IL2RG | 1 | -0.0612 | inactive |
| IL2RG | 2 | 1.56 | inactive |
| IL2RG | 3 | -0.277 | inactive |
| CDCA7 | 1 | -0.0628 | inactive |
| CDCA7 | 2 | 3.61 | inactive |
| CDCA7 | 3 | -1.05 | inactive |
| POLG | 1 | -0.867 | inactive |
| POLG | 2 | -0.77 | inactive |
| POLG | 3 | 0.766 | inactive |
| BPIFB6 | 1 | -0.15 | inactive |
| BPIFB6 | 2 | 1.1 | inactive |
| BPIFB6 | 3 | -0.416 | inactive |
| ZMAT1 | 1 | -0.78 | inactive |
| ZMAT1 | 2 | -0.173 | inactive |
| ZMAT1 | 3 | 0.532 | inactive |
| GNG13 | 1 | 0.303 | inactive |
| GNG13 | 2 | -0.583 | inactive |
| GNG13 | 3 | 1.02 | inactive |
| SLC44A5 | 1 | -0.489 | inactive |
| SLC44A5 | 2 | 2.49 | inactive |
| SLC44A5 | 3 | -0.416 | inactive |
| TC2N | 1 | 2.49 | inactive |
| TC2N | 2 | 0.37 | inactive |
| TC2N | 3 | 0.357 | inactive |
| MMACHC | 1 | -0.827 | inactive |
| MMACHC | 2 | -0.119 | inactive |
| MMACHC | 3 | 0.316 | inactive |
| ZNF264 | 1 | -0.101 | inactive |
| ZNF264 | 2 | 0.98 | inactive |
| ZNF264 | 3 | 1.84 | inactive |
| EHMT2 | 1 | 0.175 | inactive |
| EHMT2 | 2 | 0.126 | inactive |
| EHMT2 | 3 | -0.442 | inactive |
| H1-5 | 1 | 3.13 | inactive |
| H1-5 | 2 | -0.762 | inactive |
| H1-5 | 3 | 0.341 | inactive |
| STRN4 | 1 | 0.0582 | inactive |
| STRN4 | 2 | 0.0525 | inactive |
| STRN4 | 3 | 0.856 | inactive |
| SDCBP2 | 1 | -0.272 | inactive |
| SDCBP2 | 2 | -1.08 | inactive |
| SDCBP2 | 3 | -0.022 | inactive |
| ATP6AP2 | 1 | -0.9 | inactive |
| ATP6AP2 | 2 | -0.886 | inactive |
| ATP6AP2 | 3 | -0.804 | inactive |
| PRKCG | 1 | -1.15 | inactive |
| PRKCG | 2 | 0.867 | inactive |
| PRKCG | 3 | -0.18 | inactive |
| TTLL3 | 1 | -0.226 | inactive |
| TTLL3 | 2 | -0.671 | inactive |
| TTLL3 | 3 | 3.52 | inactive |
| CT47B1 | 1 | -1.03 | inactive |
| CT47B1 | 2 | -0.329 | inactive |
| CT47B1 | 3 | -0.375 | inactive |
| ZNF653 | 1 | -0.408 | inactive |
| ZNF653 | 2 | 0.969 | inactive |
| ZNF653 | 3 | 1.05 | inactive |
| MRPL55 | 1 | 1.52 | inactive |
| MRPL55 | 2 | -0.591 | inactive |
| MRPL55 | 3 | 1.41 | inactive |
| ZNF781 | 1 | 0.256 | inactive |
| ZNF781 | 2 | 1.42 | inactive |
| ZNF781 | 3 | -0.53 | inactive |
| MTERF1 | 1 | 0.797 | inactive |
| MTERF1 | 2 | -0.348 | inactive |
| MTERF1 | 3 | 0.715 | inactive |
| TGM4 | 1 | -0.769 | inactive |
| TGM4 | 2 | -0.0803 | inactive |
| TGM4 | 3 | -0.232 | inactive |
| ASZ1 | 1 | -0.147 | inactive |
| ASZ1 | 2 | 1.41 | inactive |
| ASZ1 | 3 | -0.044 | inactive |
| DENND3 | 1 | 0.0099 | inactive |
| DENND3 | 2 | 1.48 | inactive |
| DENND3 | 3 | -0.385 | inactive |
| ARRDC3 | 1 | 0.818 | inactive |
| ARRDC3 | 2 | 2.03 | inactive |
| ARRDC3 | 3 | 1.72 | inactive |
| CD7 | 1 | -0.605 | inactive |
| CD7 | 2 | -1.07 | inactive |
| CD7 | 3 | 0.465 | inactive |
| CREBRF | 1 | 1.4 | inactive |
| CREBRF | 2 | -0.791 | inactive |
| CREBRF | 3 | -0.257 | inactive |

Laid out differently: entries from further up
EHMT2 #2
- G2 robust z-score: 0.126
- outcome: inactive

EHMT2 #3
- G2 robust z-score: -0.442
- outcome: inactive

H1-5 #1
- G2 robust z-score: 3.13
- outcome: inactive

H1-5 #2
- G2 robust z-score: -0.762
- outcome: inactive

H1-5 #3
- G2 robust z-score: 0.341
- outcome: inactive

STRN4 #1
- G2 robust z-score: 0.0582
- outcome: inactive

STRN4 #2
- G2 robust z-score: 0.0525
- outcome: inactive

STRN4 #3
- G2 robust z-score: 0.856
- outcome: inactive

SDCBP2 #1
- G2 robust z-score: -0.272
- outcome: inactive

SDCBP2 #2
- G2 robust z-score: -1.08
- outcome: inactive

SDCBP2 #3
- G2 robust z-score: -0.022
- outcome: inactive
